Assay results taken from publication PMC6691575.
Results are given in words; binding and its absence hold for the method and conditions named. In cells and extracts the contact can be indirect. Some results given as binding are weak or reduced against the parent protein; the word gives no strength.

Protein sequences, listed by entry. Tags and fused reporters are not part of them.
UniProt P09429: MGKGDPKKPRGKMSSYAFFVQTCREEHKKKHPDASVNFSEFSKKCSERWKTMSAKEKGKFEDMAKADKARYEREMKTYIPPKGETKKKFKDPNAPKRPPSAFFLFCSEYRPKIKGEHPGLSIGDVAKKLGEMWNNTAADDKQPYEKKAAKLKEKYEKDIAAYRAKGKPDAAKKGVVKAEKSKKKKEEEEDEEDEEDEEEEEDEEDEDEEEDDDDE
UniProt P51532: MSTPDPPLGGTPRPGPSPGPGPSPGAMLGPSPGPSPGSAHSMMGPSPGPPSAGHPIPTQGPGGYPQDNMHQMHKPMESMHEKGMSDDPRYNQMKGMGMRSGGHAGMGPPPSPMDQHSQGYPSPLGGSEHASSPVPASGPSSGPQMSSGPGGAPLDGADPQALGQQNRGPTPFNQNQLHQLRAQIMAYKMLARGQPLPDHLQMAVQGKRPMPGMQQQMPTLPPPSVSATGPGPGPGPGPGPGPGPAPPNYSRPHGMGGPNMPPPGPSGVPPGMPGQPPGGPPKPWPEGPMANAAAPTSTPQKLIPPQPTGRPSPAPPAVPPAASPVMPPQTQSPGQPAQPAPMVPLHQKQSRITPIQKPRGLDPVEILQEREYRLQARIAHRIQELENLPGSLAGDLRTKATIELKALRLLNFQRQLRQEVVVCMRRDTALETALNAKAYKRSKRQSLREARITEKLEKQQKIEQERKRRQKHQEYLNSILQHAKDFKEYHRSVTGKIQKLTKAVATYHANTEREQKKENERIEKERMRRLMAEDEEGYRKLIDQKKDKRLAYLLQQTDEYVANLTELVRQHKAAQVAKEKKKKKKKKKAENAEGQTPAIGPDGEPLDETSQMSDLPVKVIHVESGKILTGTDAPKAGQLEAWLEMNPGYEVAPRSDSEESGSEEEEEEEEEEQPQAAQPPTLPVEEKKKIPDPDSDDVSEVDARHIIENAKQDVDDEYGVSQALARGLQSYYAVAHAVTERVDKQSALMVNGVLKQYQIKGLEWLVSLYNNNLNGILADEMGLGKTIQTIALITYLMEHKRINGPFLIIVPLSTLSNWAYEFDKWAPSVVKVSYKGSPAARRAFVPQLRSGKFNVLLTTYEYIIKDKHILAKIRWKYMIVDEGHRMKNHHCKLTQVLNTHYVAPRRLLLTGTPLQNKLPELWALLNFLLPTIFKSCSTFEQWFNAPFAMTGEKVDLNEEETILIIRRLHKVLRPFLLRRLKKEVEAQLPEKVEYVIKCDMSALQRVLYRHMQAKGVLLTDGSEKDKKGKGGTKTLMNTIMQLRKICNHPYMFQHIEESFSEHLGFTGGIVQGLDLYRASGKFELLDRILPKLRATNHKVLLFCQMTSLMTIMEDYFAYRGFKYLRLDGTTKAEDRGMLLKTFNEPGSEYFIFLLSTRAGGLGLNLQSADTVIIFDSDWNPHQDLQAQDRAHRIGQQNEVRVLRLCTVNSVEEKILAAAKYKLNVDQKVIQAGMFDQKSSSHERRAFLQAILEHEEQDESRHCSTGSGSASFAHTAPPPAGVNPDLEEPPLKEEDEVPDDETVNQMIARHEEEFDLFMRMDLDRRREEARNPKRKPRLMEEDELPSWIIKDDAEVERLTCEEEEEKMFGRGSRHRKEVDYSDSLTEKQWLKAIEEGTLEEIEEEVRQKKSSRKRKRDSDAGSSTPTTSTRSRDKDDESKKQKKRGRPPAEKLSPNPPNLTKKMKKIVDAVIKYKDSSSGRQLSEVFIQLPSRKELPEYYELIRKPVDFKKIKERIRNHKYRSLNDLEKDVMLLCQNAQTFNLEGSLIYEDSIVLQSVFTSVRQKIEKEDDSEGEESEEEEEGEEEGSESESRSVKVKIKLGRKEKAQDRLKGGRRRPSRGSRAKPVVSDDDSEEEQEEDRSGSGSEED

Tests used:
[1] = biological target: high-mobility group box 1 (HMGB1) (human (endogenous in PC-3 and LNCaP)) (UniProt P09429); assay: co-IP; PC-3 and LNCaP cell lysates, pre-cleared with A/G beads, 5 ug control IgG, HMGB1 or BRG1 antibody overnight at 4 °C, A/G beads 6 h, washed with ice-cold PBS with 0.2% NP-40, immunoblot with anti-HMGB1 and anti-BRG1; endogenous proteins, both orientations
[2] = biological target: Brahma-related gene 1 (BRG1, also known as SMARCA4) (human (endogenous in PC-3 and LNCaP)) (UniProt P51532); assay: as above

Row | binding [1] | binding [2] | Substance
1 | binds | – | Brahma-related gene 1 (BRG1, also known as SMARCA4) (from UniProt P51532 1-1647)
2 | – | binds | high-mobility group box 1 (HMGB1) (from UniProt P09429 1-215)
